# Patent publication US7888063B2, “Unnatural reactive amino acid genetic code additions” (The Scripps Research Institute, priority 2003, dated 2011)
# B1: EcTyrRS: Escherichia coli tyrosyl-tRNA synthetase, expressed with tRNACUA in yeast (protein, UniProt P0AGJ9 2-424, looked up)
# Tyrosine--tRNA ligase: ASSNLIKQLQERGLVAQVTDEEALAERLAQGPIALYCGFDPTADSLHLGHLVPLLCLKRFQQAGHKPVALVGGATGLIGDPSFKAAERKLNTEETVQEWVDKIRKQVAPFLDFDCGENSAIAANNYDWFGNMNVLTFLRDIGKHFSVNQMINKEAVKQRLNREDQGISFTEFSYNLLQGYDFACLNKQYGVVLQIGGSDQWGNITSGIDLTRRLHQNQVFGLTVPLITKADGTKFGKTEGGAVWLDPKKTSPYKFYQFWINTADADVYRFLKFFTFMSIEEINALEEEDKNSGKAPRAQYVLAEQVTRLVHGEEGLQAAKRITECLFSGSLSALSEADFEQLAQDGVPMVEMEKGADLMQALVDSELQPSRGQARKTIASNAITINGEKQSDPEYFFKEEDRLFGRFTLLRRGKKNYCLICWK
# Columns and labels:
# [1] = test system: SOD containing azido or alkyne amino acid; experiment: Protein labeling by azide-alkyne [3+2] cycloaddition, in-gel fluorescence and A280/A495; conditions: 3 with alkyne protein, 4 with azido protein
# [2] = test system: MaV203 pGADGAL4(T44TAG, R110TAG); experiment: Model positive selection for functional EcTyrRS; type: cell-based, Saccharomyces cerevisiae
Molecule,reaction with the protein bearing the same reactive group (selectivity of bioconjugation) [1],Enrichment factor ([2]; starting ratio EcYRS:A5 1:10),Enrichment factor ([2]; starting ratio EcYRS:A5 1:10^2),Enrichment factor ([2]; starting ratio EcYRS:A5 1:10^3),Enrichment factor ([2]; starting ratio EcYRS:A5 1:10^4),Enrichment factor ([2]; starting ratio EcYRS:A5 1:10^5)
C#CCNS(=O)(=O)c1cccc2c(N(C)C)cccc12 [chemical structure 3],no observable reaction,,,,,
CN(C)c1cccc2c(S(=O)(=O)NCCCN=[N+]=[N-])cccc12 [chemical structure 4],no observable reaction,,,,,
B1,,>10^,>10^2,>10^3,>10^4,>10^5
